This passage reports binding results from article doi:10.1101/447904.

Sequences of proteins named here, by UniProt entry; tags and fusion partners are left off.
UniProt P26651: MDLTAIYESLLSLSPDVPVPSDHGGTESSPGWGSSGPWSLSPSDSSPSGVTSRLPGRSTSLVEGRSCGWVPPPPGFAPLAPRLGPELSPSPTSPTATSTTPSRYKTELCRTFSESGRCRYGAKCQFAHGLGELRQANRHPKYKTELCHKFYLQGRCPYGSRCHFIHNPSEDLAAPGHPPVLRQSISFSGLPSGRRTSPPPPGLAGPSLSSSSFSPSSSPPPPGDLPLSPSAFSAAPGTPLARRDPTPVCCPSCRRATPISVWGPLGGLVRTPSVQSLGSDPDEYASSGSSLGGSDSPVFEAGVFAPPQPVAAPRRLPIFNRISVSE
UniProt P11940: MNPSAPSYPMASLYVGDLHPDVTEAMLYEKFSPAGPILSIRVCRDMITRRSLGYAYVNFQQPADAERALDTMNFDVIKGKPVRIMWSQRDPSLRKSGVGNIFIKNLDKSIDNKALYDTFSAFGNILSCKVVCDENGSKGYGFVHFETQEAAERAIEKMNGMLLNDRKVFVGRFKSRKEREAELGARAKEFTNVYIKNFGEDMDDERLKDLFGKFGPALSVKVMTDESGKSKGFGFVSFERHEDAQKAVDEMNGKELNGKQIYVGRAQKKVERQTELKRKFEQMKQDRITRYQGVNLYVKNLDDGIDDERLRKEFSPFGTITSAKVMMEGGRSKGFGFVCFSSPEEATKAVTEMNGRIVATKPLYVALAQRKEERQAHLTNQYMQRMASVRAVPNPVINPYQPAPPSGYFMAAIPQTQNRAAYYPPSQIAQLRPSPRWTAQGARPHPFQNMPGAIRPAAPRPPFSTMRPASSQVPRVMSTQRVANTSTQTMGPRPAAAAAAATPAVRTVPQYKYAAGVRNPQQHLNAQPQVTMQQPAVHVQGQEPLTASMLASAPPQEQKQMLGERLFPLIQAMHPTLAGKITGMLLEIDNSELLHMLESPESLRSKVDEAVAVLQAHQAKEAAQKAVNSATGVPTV

The test has as its target GFP-TTP (ZFP36, Tristetraprolin, with an N-terminal GFP-tag) (UniProt P26651). Description: affinity purification with mass spectrometry.

These are yes or no findings as the source states them, for the method shown. In cells and extracts the contact can be indirect. Here binding means that the protein was enriched with, or labelled near, the bait; the list need not be complete.

Consider PABC1 (from UniProt P11940 1-636), for which the binding result is on record as “binds”.

B1: UPF1 (protein, UniProt Q92900 1-1129)
chain: MSVEAYGPSSQTLTFLDTEEAELLGADTQGSEFEFTDFTLPSQTQTPPGGPGGPGGGGAGGPGGAGAGAAAGQLDAQVGPEGILQNGAVDDSVAKTSQLLAELNFEEDEEDTYYTKDLPIHACSYCGIHDPACVVYCNTSKKWFCNGRGNTSGSHIVNHLVRAKCKEVTLHKDGPLGETVLECYNCGCRNVFLLGFIPAKADSVVVLLCRQPCASQSSLKDINWDSSQWQPLIQDRCFLSWLVKIPSEQEQLRARQITAQQINKLEELWKENPSATLEDLEKPGVDEEPQHVLLRYEDAYQYQNIFGPLVKLEADYDKKLKESQTQDNITVRWDLGLNKKRIAYFTLPKTDSGNEDLVIIWLRDMRLMQGDEICLRYKGDLAPLWKGIGHVIKVPDNYGDEIAIELRSSVGAPVEVTHNFQVDFVWKSTSFDRMQSALKTFAVDETSVSGYIYHKLLGHEVEDVIIKCQLPKRFTAQGLPDLNHSQVYAVKTVLQRPLSLIQGPPGTGKTVTSATIVYHLARQGNGPVLVCAPSNIAVDQLTEKIHQTGLKVVRLCAKSREAIDSPVSFLALHNQIRNMDSMPELQKLQQLKDETGELSSADEKRYRALKRTAERELLMNADVICCTCVGAGDPRLAKMQFRSILIDESTQATEPECMVPVVLGAKQLILVGDHCQLGPVVMCKKAAKAGLSQSLFERLVVLGIRPIRLQVQYRMHPALSAFPSNIFYEGSLQNGVTAADRVKKGFDFQWPQPDKPMFFYVTQGQEEIASSGTSYLNRTEAANVEKITTKLLKAGAKPDQIGIITPYEGQRSYLVQYMQFSGSLHTKLYQEVEIASVDAFQGREKDFIILSCVRANEHQGIGFLNDPRRLNVALTRARYGVIIVGNPKALSKQPLWNHLLNYYKEQKVLVEGPLNNLRESLMQFSKPRKLVNTINPGARFMTTAMYDAREAIIPGSVYDRSSQGRPSSMYFQTHDQIGMISAGPSHVAAMNIPIPFNLVMPPMPPPGYFGQANGPAAGRGTPKGKTGRGGRQKNRFGLPGPSQTNLPNSQASQDVASQPFSQGALTQGYISMSQPSQMSQPGLSQPELSQDSYLGDEFKSQIDVALSQDSTYQGERAYQHGGVTGLSQY
Consider B1, for which the binding entry is “binds”.
